Article PMC8941131
These are yes or no findings as the source states them, for the method shown. Binding seen in cells or lysates may run through a third protein. Some results given as binding are weak or reduced against the parent protein; the word gives no strength. For part of these data: Sequences can lack the tags named with a protein.

Key:
[1] = molecular target: T1, Flag-PDK1 (3-phosphoinositide-dependent protein kinase 1, wild type) (UniProt O15530); assay: co-IP; immunoprecipitation (anti-Flag or anti-HA agarose, 2-4 h at 4 °C) from whole cell lysates of co-transfected 293T cells; EBC lysis buffer, four washes with NETN buffer, immunoblot; in some panels with HA-S6K1-R3A or knock-down of 14-3-3γ
T1 sequence: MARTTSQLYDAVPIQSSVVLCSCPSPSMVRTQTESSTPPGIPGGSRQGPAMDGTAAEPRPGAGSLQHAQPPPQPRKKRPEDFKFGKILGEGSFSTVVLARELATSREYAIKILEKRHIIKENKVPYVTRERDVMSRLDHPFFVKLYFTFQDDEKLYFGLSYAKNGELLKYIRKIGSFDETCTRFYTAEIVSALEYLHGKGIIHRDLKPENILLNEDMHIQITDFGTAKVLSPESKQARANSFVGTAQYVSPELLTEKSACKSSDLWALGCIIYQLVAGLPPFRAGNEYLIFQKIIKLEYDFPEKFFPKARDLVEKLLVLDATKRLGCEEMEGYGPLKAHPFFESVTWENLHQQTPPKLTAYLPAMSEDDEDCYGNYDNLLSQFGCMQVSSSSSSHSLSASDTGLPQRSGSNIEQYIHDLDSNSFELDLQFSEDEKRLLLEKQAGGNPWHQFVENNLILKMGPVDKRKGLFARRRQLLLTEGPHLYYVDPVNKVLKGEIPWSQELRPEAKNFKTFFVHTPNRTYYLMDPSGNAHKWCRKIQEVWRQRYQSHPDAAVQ

[2] = molecular target: T2, Flag-PDK1-S549A (UniProt O15530); assay: as above
T2 sequence: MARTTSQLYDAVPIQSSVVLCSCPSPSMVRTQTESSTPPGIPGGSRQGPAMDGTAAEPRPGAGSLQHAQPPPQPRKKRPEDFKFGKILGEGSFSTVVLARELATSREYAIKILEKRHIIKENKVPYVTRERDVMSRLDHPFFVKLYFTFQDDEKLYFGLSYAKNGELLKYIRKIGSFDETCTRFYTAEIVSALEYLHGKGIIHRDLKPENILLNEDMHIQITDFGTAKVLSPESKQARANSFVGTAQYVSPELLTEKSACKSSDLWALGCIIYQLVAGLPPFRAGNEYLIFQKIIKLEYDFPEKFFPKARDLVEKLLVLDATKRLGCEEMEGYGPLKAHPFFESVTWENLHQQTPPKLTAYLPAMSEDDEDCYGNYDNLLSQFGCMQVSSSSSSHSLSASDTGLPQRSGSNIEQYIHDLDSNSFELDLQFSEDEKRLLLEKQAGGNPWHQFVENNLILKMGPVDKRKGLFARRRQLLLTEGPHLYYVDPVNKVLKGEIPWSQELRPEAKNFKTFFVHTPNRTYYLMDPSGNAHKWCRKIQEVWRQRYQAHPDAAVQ

[3] = molecular target: T3, Flag-PDK1-S549D (UniProt O15530); assay: as above
T3 sequence: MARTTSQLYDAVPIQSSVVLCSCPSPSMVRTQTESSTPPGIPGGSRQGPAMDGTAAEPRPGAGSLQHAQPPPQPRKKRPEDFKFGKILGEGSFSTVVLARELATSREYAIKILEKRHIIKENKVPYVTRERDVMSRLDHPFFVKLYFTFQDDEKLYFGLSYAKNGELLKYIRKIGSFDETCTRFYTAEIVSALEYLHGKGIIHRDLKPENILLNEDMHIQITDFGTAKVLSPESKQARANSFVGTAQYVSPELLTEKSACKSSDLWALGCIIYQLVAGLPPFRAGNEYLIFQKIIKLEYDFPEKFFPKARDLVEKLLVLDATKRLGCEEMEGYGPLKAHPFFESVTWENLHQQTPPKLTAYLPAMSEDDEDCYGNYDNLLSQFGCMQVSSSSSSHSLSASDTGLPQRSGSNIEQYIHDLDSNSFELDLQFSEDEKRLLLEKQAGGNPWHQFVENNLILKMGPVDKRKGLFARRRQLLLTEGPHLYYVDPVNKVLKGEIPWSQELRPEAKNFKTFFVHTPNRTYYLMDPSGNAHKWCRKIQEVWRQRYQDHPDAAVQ

[4] = molecular target: T4, GST-PDK1 (UniProt O15530); assay: pull-down; GST pull-down from lysates of 14-3-3γ knockdown 293T cells transfected with GST-PDK1 and Flag-PDK1
T4 sequence: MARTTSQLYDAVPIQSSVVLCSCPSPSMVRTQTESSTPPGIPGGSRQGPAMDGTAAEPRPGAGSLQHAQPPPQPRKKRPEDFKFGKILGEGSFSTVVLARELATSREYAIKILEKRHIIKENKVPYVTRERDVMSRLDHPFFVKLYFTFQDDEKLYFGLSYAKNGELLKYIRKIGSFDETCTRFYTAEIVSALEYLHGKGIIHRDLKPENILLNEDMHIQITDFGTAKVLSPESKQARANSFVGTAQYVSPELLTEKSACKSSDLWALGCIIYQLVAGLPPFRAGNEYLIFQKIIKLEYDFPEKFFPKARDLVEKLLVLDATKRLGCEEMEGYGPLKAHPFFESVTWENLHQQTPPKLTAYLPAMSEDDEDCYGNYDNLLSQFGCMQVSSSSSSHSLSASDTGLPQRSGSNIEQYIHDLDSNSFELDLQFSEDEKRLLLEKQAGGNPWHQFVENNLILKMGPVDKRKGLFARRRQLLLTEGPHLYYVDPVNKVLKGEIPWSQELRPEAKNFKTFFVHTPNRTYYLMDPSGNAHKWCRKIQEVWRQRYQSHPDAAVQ

[5] = molecular target: T5, HA-14-3-3γ (UniProt P61981); assay: co-IP; immunoprecipitation (anti-Flag or anti-HA agarose, 2-4 h at 4 °C) from whole cell lysates of co-transfected 293T cells; EBC lysis buffer, four washes with NETN buffer, immunoblot; in some panels with HA-S6K1-R3A or knock-down of 14-3-3γ
T5 sequence: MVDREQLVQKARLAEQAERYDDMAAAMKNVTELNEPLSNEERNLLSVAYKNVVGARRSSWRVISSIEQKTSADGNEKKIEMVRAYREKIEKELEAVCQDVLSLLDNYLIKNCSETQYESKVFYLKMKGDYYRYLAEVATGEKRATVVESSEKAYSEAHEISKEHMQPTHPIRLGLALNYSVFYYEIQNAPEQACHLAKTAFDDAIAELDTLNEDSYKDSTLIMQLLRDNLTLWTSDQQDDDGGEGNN

[6] = molecular target: T6, GST-14-3-3γ (UniProt P61981); assay: pull-down; GST pull-down (glutathione beads, 2-4 h at 4 °C) from whole cell lysates of co-transfected 293T cells; EBC lysis buffer, four washes with NETN buffer, immunoblot; in Fig. 3b with increasing doses of HA-S6K1-R3A; in Fig. 4k control (scramble) cells
T6 sequence: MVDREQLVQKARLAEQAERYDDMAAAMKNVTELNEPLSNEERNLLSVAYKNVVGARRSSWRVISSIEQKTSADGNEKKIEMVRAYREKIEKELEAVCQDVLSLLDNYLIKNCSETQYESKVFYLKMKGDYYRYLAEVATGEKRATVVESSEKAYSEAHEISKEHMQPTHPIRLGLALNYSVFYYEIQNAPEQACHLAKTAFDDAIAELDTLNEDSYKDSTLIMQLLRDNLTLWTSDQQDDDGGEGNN

[7] = molecular target: T7, endogenous 14-3-3γ (DLD1 cells) (human (endogenous in DLD1)) (UniProt P61981); assay: co-IP; DLD1 cell lysates, IP with control IgG, anti-PDK1 or 14-3-3γ antibodies, immunoblot; endogenous proteins; in Fig. 1g cells infected with shRNA against S6K1
T7 sequence: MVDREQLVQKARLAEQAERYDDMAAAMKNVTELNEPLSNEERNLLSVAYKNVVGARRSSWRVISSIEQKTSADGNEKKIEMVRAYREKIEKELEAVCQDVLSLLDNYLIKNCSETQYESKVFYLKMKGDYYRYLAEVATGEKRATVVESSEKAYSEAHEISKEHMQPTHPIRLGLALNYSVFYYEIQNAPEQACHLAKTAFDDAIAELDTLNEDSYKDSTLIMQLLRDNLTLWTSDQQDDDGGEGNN

[8] = molecular target: T8, GST-PDK1, O15530; assay: pull-down; GST pull-down (glutathione beads, 2-4 h at 4 °C) from whole cell lysates of co-transfected 293T cells; EBC lysis buffer, four washes with NETN buffer, immunoblot; in Fig. 3b with increasing doses of HA-S6K1-R3A; in Fig. 4k control (scramble) cells; details: remark: other sources report otherwise
T8 chain: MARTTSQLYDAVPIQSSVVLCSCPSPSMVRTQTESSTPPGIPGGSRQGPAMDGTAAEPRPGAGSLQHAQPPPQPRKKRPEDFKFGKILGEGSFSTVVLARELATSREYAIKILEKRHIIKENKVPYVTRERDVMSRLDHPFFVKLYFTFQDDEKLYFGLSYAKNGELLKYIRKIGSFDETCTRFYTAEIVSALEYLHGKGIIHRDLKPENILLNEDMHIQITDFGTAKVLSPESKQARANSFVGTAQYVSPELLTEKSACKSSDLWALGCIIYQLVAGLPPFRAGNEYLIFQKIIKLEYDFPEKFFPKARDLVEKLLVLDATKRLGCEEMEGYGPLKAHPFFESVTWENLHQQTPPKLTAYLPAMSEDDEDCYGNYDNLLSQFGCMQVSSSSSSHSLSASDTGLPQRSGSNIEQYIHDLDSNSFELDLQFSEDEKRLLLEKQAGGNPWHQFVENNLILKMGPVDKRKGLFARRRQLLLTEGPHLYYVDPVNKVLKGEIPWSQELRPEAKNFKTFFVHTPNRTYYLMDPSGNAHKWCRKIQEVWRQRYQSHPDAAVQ

Molecule: Myc-PLK1 (from UniProt P53350 1-603) (enzyme)
- binding [1]: binds
- binding [2]: binds
- binding [3]: binds

B1: Flag-PDK1 (3-phosphoinositide-dependent protein kinase 1, wild type) (enzyme, UniProt O15530 1-556)
chain: MARTTSQLYDAVPIQSSVVLCSCPSPSMVRTQTESSTPPGIPGGSRQGPAMDGTAAEPRPGAGSLQHAQPPPQPRKKRPEDFKFGKILGEGSFSTVVLARELATSREYAIKILEKRHIIKENKVPYVTRERDVMSRLDHPFFVKLYFTFQDDEKLYFGLSYAKNGELLKYIRKIGSFDETCTRFYTAEIVSALEYLHGKGIIHRDLKPENILLNEDMHIQITDFGTAKVLSPESKQARANSFVGTAQYVSPELLTEKSACKSSDLWALGCIIYQLVAGLPPFRAGNEYLIFQKIIKLEYDFPEKFFPKARDLVEKLLVLDATKRLGCEEMEGYGPLKAHPFFESVTWENLHQQTPPKLTAYLPAMSEDDEDCYGNYDNLLSQFGCMQVSSSSSSHSLSASDTGLPQRSGSNIEQYIHDLDSNSFELDLQFSEDEKRLLLEKQAGGNPWHQFVENNLILKMGPVDKRKGLFARRRQLLLTEGPHLYYVDPVNKVLKGEIPWSQELRPEAKNFKTFFVHTPNRTYYLMDPSGNAHKWCRKIQEVWRQRYQSHPDAAVQ
- binding [4]: no binding (condition: in 14-3-3γ knockdown cells)
- binding [5]: binds
- binding [6]: binds

B2: endogenous PDK1 (DLD1 cells) (enzyme, UniProt O15530 1-556)
chain: MARTTSQLYDAVPIQSSVVLCSCPSPSMVRTQTESSTPPGIPGGSRQGPAMDGTAAEPRPGAGSLQHAQPPPQPRKKRPEDFKFGKILGEGSFSTVVLARELATSREYAIKILEKRHIIKENKVPYVTRERDVMSRLDHPFFVKLYFTFQDDEKLYFGLSYAKNGELLKYIRKIGSFDETCTRFYTAEIVSALEYLHGKGIIHRDLKPENILLNEDMHIQITDFGTAKVLSPESKQARANSFVGTAQYVSPELLTEKSACKSSDLWALGCIIYQLVAGLPPFRAGNEYLIFQKIIKLEYDFPEKFFPKARDLVEKLLVLDATKRLGCEEMEGYGPLKAHPFFESVTWENLHQQTPPKLTAYLPAMSEDDEDCYGNYDNLLSQFGCMQVSSSSSSHSLSASDTGLPQRSGSNIEQYIHDLDSNSFELDLQFSEDEKRLLLEKQAGGNPWHQFVENNLILKMGPVDKRKGLFARRRQLLLTEGPHLYYVDPVNKVLKGEIPWSQELRPEAKNFKTFFVHTPNRTYYLMDPSGNAHKWCRKIQEVWRQRYQSHPDAAVQ
- binding [7]: binds

B3: Flag-PDK1-S549D (enzyme, UniProt O15530 1-556)
chain: MARTTSQLYDAVPIQSSVVLCSCPSPSMVRTQTESSTPPGIPGGSRQGPAMDGTAAEPRPGAGSLQHAQPPPQPRKKRPEDFKFGKILGEGSFSTVVLARELATSREYAIKILEKRHIIKENKVPYVTRERDVMSRLDHPFFVKLYFTFQDDEKLYFGLSYAKNGELLKYIRKIGSFDETCTRFYTAEIVSALEYLHGKGIIHRDLKPENILLNEDMHIQITDFGTAKVLSPESKQARANSFVGTAQYVSPELLTEKSACKSSDLWALGCIIYQLVAGLPPFRAGNEYLIFQKIIKLEYDFPEKFFPKARDLVEKLLVLDATKRLGCEEMEGYGPLKAHPFFESVTWENLHQQTPPKLTAYLPAMSEDDEDCYGNYDNLLSQFGCMQVSSSSSSHSLSASDTGLPQRSGSNIEQYIHDLDSNSFELDLQFSEDEKRLLLEKQAGGNPWHQFVENNLILKMGPVDKRKGLFARRRQLLLTEGPHLYYVDPVNKVLKGEIPWSQELRPEAKNFKTFFVHTPNRTYYLMDPSGNAHKWCRKIQEVWRQRYQDHPDAAVQ
- binding [5]: binds

B4: Flag-PDK1 (3-phosphoinositide-dependent protein kinase 1, wild type), O15530 1-556 (enzyme)
chain: MARTTSQLYDAVPIQSSVVLCSCPSPSMVRTQTESSTPPGIPGGSRQGPAMDGTAAEPRPGAGSLQHAQPPPQPRKKRPEDFKFGKILGEGSFSTVVLARELATSREYAIKILEKRHIIKENKVPYVTRERDVMSRLDHPFFVKLYFTFQDDEKLYFGLSYAKNGELLKYIRKIGSFDETCTRFYTAEIVSALEYLHGKGIIHRDLKPENILLNEDMHIQITDFGTAKVLSPESKQARANSFVGTAQYVSPELLTEKSACKSSDLWALGCIIYQLVAGLPPFRAGNEYLIFQKIIKLEYDFPEKFFPKARDLVEKLLVLDATKRLGCEEMEGYGPLKAHPFFESVTWENLHQQTPPKLTAYLPAMSEDDEDCYGNYDNLLSQFGCMQVSSSSSSHSLSASDTGLPQRSGSNIEQYIHDLDSNSFELDLQFSEDEKRLLLEKQAGGNPWHQFVENNLILKMGPVDKRKGLFARRRQLLLTEGPHLYYVDPVNKVLKGEIPWSQELRPEAKNFKTFFVHTPNRTYYLMDPSGNAHKWCRKIQEVWRQRYQSHPDAAVQ
- binding [8]: binds
